Results deposited as PubChem BioAssay AID1259308 (NCATS, 2017)
In all, the deposit lists about 59,000 reagents; shown is a random part of them. Of all reagents, about 1,510 (2.6%) were called active. 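Calls use total luciferase alone and ignore viability, so some active siRNAs may act by altering cell number.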 Reagents against one gene are numbered here.

Test: 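Knock-downs that increase output of a recombinant reporter protein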 (primary screen)
System: human HEK293 embryonic kidney cells stably expressing firefly luciferase (HEK-CMV-Luc2-Hygro)
Reagents: single siRNA against human genes, 0.8 pmol siRNA per well
Duration: 72 h
Read-out: 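Luciferase light (ONE-Glo) measured on one replicate plate set and viability (CellTiter-Glo) on the other, scaled to a negative control siRNA, with robust z-scores and luciferase per cell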
Reading the numbers: total luciferase, z-score and total luciferase, % of control: higher = more reporter protein produced; luciferase per cell, z-score: higher = more reporter output per viable cell; viable cells, % of control: higher = more viable cells
Hit rule: 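Active when the median/MAD z-score for overall luciferase is greater than 3; a gene was taken forward for validation with new siRNAs if at least two of its three siRNAs passed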
Meaning of the calls: active = raised luciferase; inactive = no rise

Gene	siRNA no.	total luciferase, z-score	total luciferase, % of control	luciferase per cell, z-score	viable cells, % of control	Call
CDK5R1 (cyclin dependent kinase 5 regulatory subunit 1)	1	1.15	105	0.633	99.2	inactive
CDK5R1 (cyclin dependent kinase 5 regulatory subunit 1)	2	-0.863	64.7	0.294	67	inactive
CDK5R1 (cyclin dependent kinase 5 regulatory subunit 1)	3	0.817	98.1	0.502	96.1	inactive
DDHD1 (DDHD domain containing 1)	1	-1.32	55.6	-1.51	92.5	inactive
DDHD1 (DDHD domain containing 1)	2	-2.17	38.8	-2.05	74.3	inactive
DDHD1 (DDHD domain containing 1)	3	-0.523	71.5	-0.64	94.5	inactive
COL23A1 (collagen type XXIII alpha 1 chain)	1	-0.209	77.7	0.871	69.1	inactive
COL23A1 (collagen type XXIII alpha 1 chain)	2	0.671	95.2	0.223	100	inactive
COL23A1 (collagen type XXIII alpha 1 chain)	3	2.67	135	2.02	88.7	inactive
SACK1D (scaffolding CK1 anchoring protein D)	1	-0.507	71.8	-0.197	84.5	inactive
SACK1D (scaffolding CK1 anchoring protein D)	2	-0.872	64.5	-0.654	85.7	inactive
SACK1D (scaffolding CK1 anchoring protein D)	3	-1.26	56.9	-0.61	74.7	inactive
SIGLEC7 (sialic acid binding Ig like lectin 7)	1	-0.693	68.1	-0.114	78.4	inactive
SIGLEC7 (sialic acid binding Ig like lectin 7)	2	-0.281	76.3	-0.053	86.4	inactive
SIGLEC7 (sialic acid binding Ig like lectin 7)	3	1.01	102	1.34	80.1	inactive
RTKN2 (rhotekin 2)	1	-0.915	63.7	-0.235	75.7	inactive
RTKN2 (rhotekin 2)	2	-0.722	67.5	-0.896	95.5	inactive
RTKN2 (rhotekin 2)	3	-0.537	71.2	-0.53	91.5	inactive
FAM76A (family with sequence similarity 76 member A)	1	1.19	106	0.807	95.3	inactive
FAM76A (family with sequence similarity 76 member A)	2	-1.7	48.1	-1.33	76.3	inactive
FAM76A (family with sequence similarity 76 member A)	3	0.34	88.6	-0.291	107	inactive
MAPK12 (mitogen-activated protein kinase 12)	1	-0.0995	79.9	0.24	83.8	inactive
MAPK12 (mitogen-activated protein kinase 12)	2	-0.0993	79.9	-0.366	98.3	inactive
MAPK12 (mitogen-activated protein kinase 12)	3	-0.434	73.3	0.594	70	inactive
YES1 (YES proto-oncogene 1, Src family tyrosine kinase)	1	1.56	113	1.18	92.4	inactive
YES1 (YES proto-oncogene 1, Src family tyrosine kinase)	2	-1.41	53.9	-0.969	77.7	inactive
YES1 (YES proto-oncogene 1, Src family tyrosine kinase)	3	-0.562	70.7	-0.896	100	inactive
NBEAL1 (neurobeachin like 1)	1	0.082	83.5	0.13	90.2	inactive
NBEAL1 (neurobeachin like 1)	2	-0.016	81.6	-0.751	111	inactive
NBEAL1 (neurobeachin like 1)	3	-0.703	67.9	-1.14	103	inactive
NBEAL1 (neurobeachin like 1)	4	-1.59	50.2	-1.67	87.2	inactive
NBEAL1 (neurobeachin like 1)	5	0.456	91	-0.00706	102	inactive
NBEAL1 (neurobeachin like 1)	6	0.147	84.8	-0.139	98.3	inactive
FAN1 (FANCD2 and FANCI associated nuclease 1)	1	-0.915	63.7	-0.683	85.2	inactive
FAN1 (FANCD2 and FANCI associated nuclease 1)	2	-0.0579	80.7	-0.0622	91.7	inactive
FAN1 (FANCD2 and FANCI associated nuclease 1)	3	-1.13	59.4	-0.879	83.6	inactive

Continued; the last 6 above are carried over.
Gene	siRNA no.	total luciferase, z-score	total luciferase, % of control	luciferase per cell, z-score	viable cells, % of control	Call
NBEAL1 (neurobeachin like 1)	4	-1.59	50.2	-1.67	87.2	inactive
NBEAL1 (neurobeachin like 1)	5	0.456	91	-0.00706	102	inactive
NBEAL1 (neurobeachin like 1)	6	0.147	84.8	-0.139	98.3	inactive
FAN1 (FANCD2 and FANCI associated nuclease 1)	1	-0.915	63.7	-0.683	85.2	inactive
FAN1 (FANCD2 and FANCI associated nuclease 1)	2	-0.0579	80.7	-0.0622	91.7	inactive
FAN1 (FANCD2 and FANCI associated nuclease 1)	3	-1.13	59.4	-0.879	83.6	inactive
RSAD2 (radical S-adenosyl methionine domain containing 2)	1	2.61	134	3.07	66.7	inactive
RSAD2 (radical S-adenosyl methionine domain containing 2)	2	-0.711	67.8	-1.03	99.2	inactive
RSAD2 (radical S-adenosyl methionine domain containing 2)	3	0.166	85.2	0.0115	94.9	inactive
GRAMD2A (GRAM domain containing 2A)	1	4.02	162	2.87	84.8	active
GRAMD2A (GRAM domain containing 2A)	2	0.29	87.7	0.00792	97.7	inactive
GRAMD2A (GRAM domain containing 2A)	3	0.27	87.3	-0.0501	98.8	inactive
INO80B (INO80 complex subunit B)	1	0.681	95.4	0.375	96.6	inactive
INO80B (INO80 complex subunit B)	2	2.26	127	1.29	101	inactive
INO80B (INO80 complex subunit B)	3	2.15	125	2.24	77.2	inactive
ARL4A (ARF like GTPase 4A)	1	-0.817	65.6	-0.907	93.1	inactive
ARL4A (ARF like GTPase 4A)	2	2.78	137	1.22	111	inactive
ARL4A (ARF like GTPase 4A)	3	-0.622	69.5	-1.17	106	inactive
DIMT1 (DIM1 rRNA methyltransferase and ribosome maturation factor)	1	-1.08	60.3	-0.859	84.5	inactive
DIMT1 (DIM1 rRNA methyltransferase and ribosome maturation factor)	2	-0.536	71.2	-0.139	82.6	inactive
DIMT1 (DIM1 rRNA methyltransferase and ribosome maturation factor)	3	0.904	99.9	0.58	95.8	inactive
CHRNB2 (cholinergic receptor nicotinic beta 2 subunit)	1	0.268	87.2	0.676	81.6	inactive
CHRNB2 (cholinergic receptor nicotinic beta 2 subunit)	2	-0.233	77.2	-0.334	94.3	inactive
CHRNB2 (cholinergic receptor nicotinic beta 2 subunit)	3	-0.242	77.1	-0.633	102	inactive
LCE1C (late cornified envelope 1C)	1	-1.87	44.7	-2.65	100	inactive
LCE1C (late cornified envelope 1C)	2	-0.0388	81.1	-0.787	111	inactive
LCE1C (late cornified envelope 1C)	3	0.364	89.1	0.735	82.1	inactive
